In publication PMC4793043:
No constants are given. Whether binding was seen depends on the method and setting. Binding seen in cells or lysates may run through a third protein. Some results given as binding are weak or reduced against the parent protein; the word gives no strength. For part of these data: Where a sequence is shown, tags or fusion partners need not be part of it.

Protein sequences, listed by entry. Tags and fused reporters are not part of them.
UniProt Q9UQL6: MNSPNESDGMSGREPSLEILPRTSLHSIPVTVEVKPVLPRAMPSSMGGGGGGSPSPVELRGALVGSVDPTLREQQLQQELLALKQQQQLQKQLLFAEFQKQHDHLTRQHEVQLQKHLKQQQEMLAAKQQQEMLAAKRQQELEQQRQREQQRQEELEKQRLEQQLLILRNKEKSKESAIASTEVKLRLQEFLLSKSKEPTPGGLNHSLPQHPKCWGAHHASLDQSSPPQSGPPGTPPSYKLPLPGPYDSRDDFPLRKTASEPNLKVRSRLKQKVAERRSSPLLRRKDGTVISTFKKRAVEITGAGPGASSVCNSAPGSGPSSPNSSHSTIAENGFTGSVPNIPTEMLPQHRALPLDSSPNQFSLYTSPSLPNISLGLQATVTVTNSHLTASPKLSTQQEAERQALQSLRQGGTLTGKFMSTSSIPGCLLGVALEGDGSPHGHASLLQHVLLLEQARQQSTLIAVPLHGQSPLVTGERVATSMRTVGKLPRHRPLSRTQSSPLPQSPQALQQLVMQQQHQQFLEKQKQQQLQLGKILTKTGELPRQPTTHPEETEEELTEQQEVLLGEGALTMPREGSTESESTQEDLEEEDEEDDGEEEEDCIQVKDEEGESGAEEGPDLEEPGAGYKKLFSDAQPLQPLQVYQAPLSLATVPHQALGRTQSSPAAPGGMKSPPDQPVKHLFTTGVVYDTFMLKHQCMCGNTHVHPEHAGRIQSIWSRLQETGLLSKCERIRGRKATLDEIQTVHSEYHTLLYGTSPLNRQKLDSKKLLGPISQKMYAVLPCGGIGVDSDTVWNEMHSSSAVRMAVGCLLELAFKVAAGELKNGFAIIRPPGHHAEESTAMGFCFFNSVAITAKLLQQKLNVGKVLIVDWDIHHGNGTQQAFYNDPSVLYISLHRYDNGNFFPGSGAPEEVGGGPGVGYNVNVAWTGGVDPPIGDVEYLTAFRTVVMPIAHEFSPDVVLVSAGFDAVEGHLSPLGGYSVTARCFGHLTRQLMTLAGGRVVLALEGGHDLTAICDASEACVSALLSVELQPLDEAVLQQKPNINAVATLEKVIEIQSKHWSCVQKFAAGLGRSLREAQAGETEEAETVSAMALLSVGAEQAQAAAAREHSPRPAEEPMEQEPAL
UniProt P17844: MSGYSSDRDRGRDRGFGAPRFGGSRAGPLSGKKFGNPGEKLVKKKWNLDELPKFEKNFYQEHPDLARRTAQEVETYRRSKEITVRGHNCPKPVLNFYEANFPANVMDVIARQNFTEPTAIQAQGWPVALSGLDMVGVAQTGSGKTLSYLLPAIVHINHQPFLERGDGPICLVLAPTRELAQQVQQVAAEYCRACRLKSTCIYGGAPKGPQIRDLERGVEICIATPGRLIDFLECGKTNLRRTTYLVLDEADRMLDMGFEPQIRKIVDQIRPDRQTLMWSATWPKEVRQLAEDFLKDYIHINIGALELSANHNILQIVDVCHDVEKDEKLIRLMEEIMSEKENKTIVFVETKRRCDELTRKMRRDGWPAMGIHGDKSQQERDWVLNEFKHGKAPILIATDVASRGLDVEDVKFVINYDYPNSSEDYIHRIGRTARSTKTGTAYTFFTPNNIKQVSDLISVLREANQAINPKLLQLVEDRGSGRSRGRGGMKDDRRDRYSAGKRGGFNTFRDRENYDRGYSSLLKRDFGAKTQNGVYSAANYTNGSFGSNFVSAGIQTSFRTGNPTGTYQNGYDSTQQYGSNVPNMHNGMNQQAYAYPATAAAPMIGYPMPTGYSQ

Tests used:
[1] = target: HA-tagged full-length TLX (residues 1-385) (UniProt Q64104); test: co-IP; lysates of HEK293T cells transfected with HA-TLX (full length or deletion mutants), with or without DNase and RNase; IP with HA antibody, blot with p68 antibody; lysis buffer 50 mM Tris-HCl pH 7.8, 150 mM NaCl, 1% NP-40, 0.1% deoxycholate
[2] = target: HA-tagged TLX deletion mutant, residues 1-359 (UniProt Q64104); test: as above
Flag-Drosha [3] = target: T1, Flag-Drosha (UniProt Q9NRR4); test: co-IP; lysates of HEK293T cells co-transfected with Flag-Drosha or Flag-DGCR8 and HA-TLX (full length or deletion mutants), with or without DNase and RNase; IP with anti-Flag antibody, blot with anti-HA antibody
T1 sequence: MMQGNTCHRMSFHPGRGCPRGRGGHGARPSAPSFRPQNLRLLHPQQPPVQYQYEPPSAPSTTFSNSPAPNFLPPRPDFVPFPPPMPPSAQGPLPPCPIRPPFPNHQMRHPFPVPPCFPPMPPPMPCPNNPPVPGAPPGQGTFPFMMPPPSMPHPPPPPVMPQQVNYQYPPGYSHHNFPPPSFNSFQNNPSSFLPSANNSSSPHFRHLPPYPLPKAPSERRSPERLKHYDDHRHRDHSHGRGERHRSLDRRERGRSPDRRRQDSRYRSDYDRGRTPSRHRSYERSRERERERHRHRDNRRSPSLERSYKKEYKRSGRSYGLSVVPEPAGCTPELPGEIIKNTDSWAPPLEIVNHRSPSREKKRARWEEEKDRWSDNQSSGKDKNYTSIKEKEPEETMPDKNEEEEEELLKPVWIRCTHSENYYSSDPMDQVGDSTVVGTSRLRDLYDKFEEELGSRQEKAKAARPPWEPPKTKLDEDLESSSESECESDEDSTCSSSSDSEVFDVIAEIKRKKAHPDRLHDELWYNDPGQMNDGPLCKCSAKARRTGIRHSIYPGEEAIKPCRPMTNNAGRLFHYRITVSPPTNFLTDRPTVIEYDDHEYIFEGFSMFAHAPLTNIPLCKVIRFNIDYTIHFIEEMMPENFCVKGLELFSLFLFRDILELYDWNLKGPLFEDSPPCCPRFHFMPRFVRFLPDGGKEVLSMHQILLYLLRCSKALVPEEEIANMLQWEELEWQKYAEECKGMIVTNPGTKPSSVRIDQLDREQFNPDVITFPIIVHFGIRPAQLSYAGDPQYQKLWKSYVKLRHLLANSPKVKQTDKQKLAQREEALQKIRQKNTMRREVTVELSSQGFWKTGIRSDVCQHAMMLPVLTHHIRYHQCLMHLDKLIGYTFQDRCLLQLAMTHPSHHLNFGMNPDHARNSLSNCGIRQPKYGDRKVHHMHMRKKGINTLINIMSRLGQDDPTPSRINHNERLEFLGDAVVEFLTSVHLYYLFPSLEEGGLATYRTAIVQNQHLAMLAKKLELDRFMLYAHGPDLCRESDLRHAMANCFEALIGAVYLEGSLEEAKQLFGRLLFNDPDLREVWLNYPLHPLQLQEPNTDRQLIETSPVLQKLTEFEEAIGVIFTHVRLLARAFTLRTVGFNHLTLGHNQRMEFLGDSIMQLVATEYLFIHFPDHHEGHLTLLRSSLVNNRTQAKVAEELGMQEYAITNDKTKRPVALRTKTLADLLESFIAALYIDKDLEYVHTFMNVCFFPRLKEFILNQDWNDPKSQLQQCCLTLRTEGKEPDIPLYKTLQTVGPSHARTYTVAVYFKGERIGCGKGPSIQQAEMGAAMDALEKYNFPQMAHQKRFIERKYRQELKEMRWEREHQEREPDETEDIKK

Flag-DGCR8 = target: T2, Flag-DGCR8 (UniProt Q8WYQ5); test: as above
T2 sequence: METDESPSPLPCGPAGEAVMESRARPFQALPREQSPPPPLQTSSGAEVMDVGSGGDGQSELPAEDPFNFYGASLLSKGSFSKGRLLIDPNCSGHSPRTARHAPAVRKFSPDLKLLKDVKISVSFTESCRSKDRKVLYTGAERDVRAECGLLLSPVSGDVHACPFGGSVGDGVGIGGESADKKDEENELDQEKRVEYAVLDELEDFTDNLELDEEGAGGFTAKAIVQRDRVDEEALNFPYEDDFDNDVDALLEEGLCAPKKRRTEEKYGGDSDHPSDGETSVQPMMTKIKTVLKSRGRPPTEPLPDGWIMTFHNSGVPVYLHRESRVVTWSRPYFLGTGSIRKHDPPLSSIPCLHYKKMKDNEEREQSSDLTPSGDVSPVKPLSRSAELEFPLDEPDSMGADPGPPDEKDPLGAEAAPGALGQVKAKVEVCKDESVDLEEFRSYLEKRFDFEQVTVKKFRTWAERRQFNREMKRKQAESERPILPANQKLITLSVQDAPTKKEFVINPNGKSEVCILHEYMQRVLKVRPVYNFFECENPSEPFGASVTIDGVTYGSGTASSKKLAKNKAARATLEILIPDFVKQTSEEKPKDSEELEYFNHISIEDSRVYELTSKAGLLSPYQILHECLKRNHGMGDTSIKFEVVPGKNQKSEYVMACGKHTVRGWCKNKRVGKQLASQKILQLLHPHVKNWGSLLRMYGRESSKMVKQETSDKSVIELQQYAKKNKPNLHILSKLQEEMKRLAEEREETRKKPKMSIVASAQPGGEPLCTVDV

Flag-Drosha [4] = target: T1, Flag-Drosha; test: co-IP; HEK293T cells co-transfected with Dpi peptide, control peptide or empty vector together with HA-TLX and Flag-Drosha or Flag-HDAC5; IP with anti-Flag antibody, blot with anti-HA or anti-Flag antibody
Flag-HDAC5 = Flag-HDAC5 (UniProt Q9UQL6); test: as above
[5] = target: endogenous TLX (E13.5 mouse brain) (mouse (endogenous in E13.5 mouse brain)) (UniProt Q64104); test: co-IP; endogenous proteins; lysates of E13.5 mouse brains immunoprecipitated with TLX antibody, blotted with anti-Drosha, anti-DGCR8 or anti-TLX antibody

“RNA helicase p68 (DDX5), endogenous in HEK293T (from UniProt P17844 1-614)” was tested, and the binding [1] was “binds” and the binding [2] was “binds”.

In the case of “HA-tagged full-length TLX (residues 1-385) (from UniProt Q64104 1-385)”, the binding (Flag-Drosha [3]) is reported as “binds”, the binding (Flag-DGCR8) is reported as “binds” and the binding (Flag-Drosha [4]) is reported as “binds”. The binding (Flag-HDAC5) was “binds”.

With “HA-tagged TLX deletion mutant, residues 1-359 (from UniProt Q64104 1-359) (domain or fragment)” the binding (Flag-Drosha [3]) was “binds”.

B1: endogenous Drosha (E13.5 mouse brain) (enzyme, UniProt Q5HZJ0 1-1373)
chain: MQGNTCHRMSYHPGRGCPRGRGGHGARPSAPAFRPQNLRLLHPQQPPAQYQYEPPSAPSSSYSNSQAPSFMPPRPDFVPYPPPAAPSAQGPLPPCPVRPPYPNHQMRHPFPVPPCFPPMPPPMPCPNNPPASGAPPGQGTFPFMVPPPSMPHPPPPPVMPQQVNYQYPPGYSHSFPPPGFNSYQNNSSSFPPSANSSSTPHFRHLPPYSLPKAQNERRSPERLKHYDDHRHRDHSHGRGERHRSLERRERGRSPERRRPESRYRSDYDRGRTPPPRHRSYERSRERDRERHRHREARRSPSLERSYKKEYKRSGRSYALPVAPEPAGCTPELPGEMIKTTESWAPPPENVNHRSPSREKKRARWEEEKDRWSDSQGSGKEKNYTSIKEKEAEEVPPEKTEEEEEELLKPVWIRCTHSESYYSSDPMDQVGDSTVVGTSRLRDLYDKFEEELGNRQEKAKAARPPWEPPKTKLDEDLESSSESECETDDDSTCSSSSDSEVFDVIAEIKRKKAHPDRLHDELWYNDPGQMNDGPLCKCSAKARRTGIRHSIYPGEEAIKPCRPMTNNAGRLFHYRITVSPPTNFLTDRPTVIEYDDHEYIFEGFSMFAHAPLTNIPLCKVIRFNIDYTIHFIEEMMPENFCVKGLELFSLFLFRDILELYDWNLKGPLFEDSPPCCPRFHFMPRFVRFLPDGGKEVLSMHQILLYLLRCSKALVPEEEIANMLQWEELEWQKYAEECKGMIVTNPGTKPSSVRIDQLDREQFNPEVITFPIIVHFGIRPAQLSYAGDPQYQKLWKSYVKLRHLLANSPKVKQTDKQKLAQREEALQKIRQKNTMRREVTVELSSQGFWKTGIRSDVCQHAMMLPVLTHHIRYHQCLMHLDKLIGYTFQDRCLLQLAMTHPSHHLNFGMNPDHARNSLSNCGIRQPKYGDRKVHHMHMRKKGINTLINIMSRLGQDDPTPSRINHNERLEFLGDAVVEFLTSVHLYYLFPSLEEGGLATYRTAIVQNQHLAMLAKKLELDRFMLYAHGPDLCRESDLRHAMANCFEALIGAVYLEGSLEEAKQLFGRLLFNDPDLREVWLNYPLHPLQLQEPNTDRQLIETSPVLQKLTEFEEAIGVIFTHVRLLARAFTLRTVGFNHLTLGHNQRMEFLGDSIMQLVATEYLFIHFPDHHEGHLTLLRSSLVNNRTQAKVAEELGMQEYAITNDKTKRPVALRTKTLADLLESFIAALYIDKDLEYVHTFMNVCFFPRLKEFILNQDWNDPKSQLQQCCLTLRTEGKEPDIPLYKTLQTVGPSHARTYTVAVYFKGERIGCGKGPSIQQAEMGAAMDALEKYNFPQMAHQKRFIERKYRQELKEMRWEREHQEREPEEAEDIKK
B1 was tested, and the binding [5] was “binds”.

B2: endogenous DGCR8 (E13.5 mouse brain) (protein, UniProt Q9EQM6 1-773)
chain: METYESPSPLPREPAGEAMMENRACPFQVLPHEQSPPPPLQTSSDAEVMDVGSGGDGQSEPPADDPFNFYGASLLSKGSFSKGRLLIDPNCSGHSPRTARHAPAVRKFSPDLKLLKDVKISVSFTESCRSKDRKVLYTGVERSTRPECGQLLSPVSGDVHACPFGGSVGNGVGLGGESADKKDEENELDQEKRVEYAVLDELEDFTDNLELDEEGTGGFTAKAIVQRDRVDEEALNFSYEDDFDNDVDALLEEGLCAPKKRRMEEKYGGDSDHPSDGETSVQPMMTKIKTVLKSRGRPPTEPLPDGWIMTFHNSGVPVYLHRESRVVTWSRPYFLGTGSIRKHDPPLSSIPCLHYKKMKDNEEREQNCDLAPSGEVSPVKPLGRSAELDFPLEEPDSMGGDSGSMDEKDPLGAEAAAGALGQVKAKVEVCKDESVDLEEFRNYLEKRFDFEQVTVKKFRTWAERRQFNREMKRKQAESERPILPANQKLITLSVQDAPTKKEFVINPNGKSEVCILHEYMQRVLKVRPVYNFFECENPSEPFGASVTIDGVTYGSGTASSKKLAKNKAARATLEILIPDFVKQTSEEKPKDSEELEYFNHISIEDSRVYELTSKAGLLSPYQILHECLKRNHGMGDTSIKFEVVPGKNQKSEYVMACGKHTVRGWCKNKRVGKQLASQKILQLLHPHVKNWGSLLRMYGRESSKMVKQETSDKSVIELQQYAKKNRPNLHILSKLQEEMKRLAAEREETRKKPKMSIVASAQPGGEPLCTVDV
In the case of B2, the binding [5] is reported as “binds”.
